# Laboratory results reported in PubChem BioAssay AID540276 (National Center for Advancing Translational Sciences (NCATS), 2011).
# Out of some 300,000 compounds screened, about 5,400 (1.8%) were called active. This list was built around the results that the source calls inconclusive (neither active nor inactive); the mix of calls is not that of the screen. Calls follow the shape of the full dose curve; tested in HEK293 cells. A potency beside an inconclusive call is a rough fit, not a confirmed value.
# Test: qHTS for inhibitors of binding or entry into cells for Marburg Virus
# Details: Marburg virus pseudotyped entry inhibition, cell reporter; activity change, negative = inhibition: at 37.8 µM (top of the series) unless noted
# % is scaled to controls: 0 for no effect and ±100 for the full control effect; potency is read from the fitted curve at half-maximal effect.
SMILES,Potency,"activity change, negative = inhibition"
Cc1ccc(NC(=O)Cn2cc3c(n2)CCCC3)cc1Cl,"inconclusive: 1 µM [inhibitor, partial curve, poor fit]",–
COCCN(CC1CCCN(C2Cc3ccccc3C2)C1)C(=O)c1ccc(C(C)=O)cc1 (configuration not stated),"inconclusive: 5.62 µM [inhibitor, single point]",–
Cc1ccc(-c2nn3c(C)nnc3c3ccccc23)cc1S(=O)(=O)NCc1ccccc1,"inconclusive: 16.4 µM [inhibitor, single point]",–
Oc1ccc(N2CCN(c3nnnn3-c3ccccc3)CC2)cc1,–,inactive: 3.66% [at 14.2 µM]
COc1ccc(/C=C/C(=O)NCc2cnn(C)c2C)cc1COc1ccc(Br)cc1,"inconclusive: 16.4 µM [inhibitor, single point]",–
CC(=O)Nc1ccc2nc(-c3cccs3)[nH]c2c1,–,inactive: -23%
CCN(CC)CCOC(=O)c1ccc(NC(=O)CCCN2C(=O)/C(=C/c3cccs3)SC2=S)cc1,"inconclusive: 35.5 µM [inhibitor, single point]",–
COc1ccc(Cl)cc1NC(=O)Cn1c(=O)n2nc(-c3ccccc3)nc2c2ccccc21,"inconclusive: 5.62 µM [activator, single point]",–
O=C(Cc1ccccc1)NN1C(=O)C2C3C=CC(C4CC34)C2C1=O (configuration not stated),–,inactive: 17.7%
COc1ccc(C2=Nn3c(nnc3-c3cc(C)[nH]n3)SC2)cc1,"inconclusive: 25.1 µM [inhibitor, single point]",–
O=C(c1ccccc1)C(CN1CCCC1)c1ccccc1 (configuration not stated),active: 7.08 µM,–
CN(CC(=O)Nc1cc(Cl)cc(Cl)c1)Cc1cccs1,–,inactive: -15.4%
COc1ccc(OC)c(CN2CCC(CO)(CCOc3ccccc3)CC2)c1,"inconclusive: 22.4 µM [inhibitor, single point]",–
O=C(CSCCO)N1CCc2ccccc21,–,inactive: -6.47%
COc1cccc(NC(=O)Cn2c(=O)n(CCC(=O)NCc3ccccc3OC)c(=O)c3ccccc32)c1,–,inactive: 13.2% [at 46.1 µM]
Cc1cc(C)c(C(=O)Cn2nc(C)c([N+](=O)[O-])c2C)cc1C,"inconclusive: 2.82 µM [inhibitor, full curve]",–
O=C(NC1CCCC1)C(c1ccc(Cl)cc1)N(Cc1ccc(F)cc1)C(=O)CCl (configuration not stated),"inconclusive: 0.1 µM [inhibitor, full curve, poor fit]",–
O=C(CSc1nnnn1Cc1ccccc1)Nc1ccc2c(c1)OCCO2,–,inactive: 22%
CCOc1ccc2c(c1)c(=O)c(C(=O)c1ccc(CC)cc1)cn2CC(=O)Nc1ccc2c(c1)OCCO2,"inconclusive: 5.62 µM [activator, single point]",–
COc1cc(C2C=C(C(=O)O)Nc3ncnn32)ccc1O (configuration not stated),–,inactive: -1.7% [at 46.1 µM]
Cc1cc(C)c(S(=O)(=O)c2ccccc2)c(OC(=O)c2ccc(Cl)cc2Cl)n1,–,inactive: -21.7% [at 46.1 µM]
Cn1nnc(NC(=S)NC(=O)c2ccco2)n1,–,inactive: 7.81%
CCNC(=O)C(=O)Nc1ccc([N+](=O)[O-])cc1,–,inactive: -0.318%
COc1cc(CNc2ccccc2SC)cc(OC)c1OC,"inconclusive: 7.3 µM [inhibitor, partial curve, poor fit]",–

# Given with bars between the fields: entries from further up
SMILES | Potency | activity change, negative = inhibition
Cc1ccc(NC(=O)Cn2cc3c(n2)CCCC3)cc1Cl | inconclusive: 1 µM [inhibitor, partial curve, poor fit] | –
Cc1ccc(-c2nn3c(C)nnc3c3ccccc23)cc1S(=O)(=O)NCc1ccccc1 | inconclusive: 16.4 µM [inhibitor, single point] | –
Oc1ccc(N2CCN(c3nnnn3-c3ccccc3)CC2)cc1 | – | inactive: 3.66% [at 14.2 µM]
COc1ccc(/C=C/C(=O)NCc2cnn(C)c2C)cc1COc1ccc(Br)cc1 | inconclusive: 16.4 µM [inhibitor, single point] | –
CCN(CC)CCOC(=O)c1ccc(NC(=O)CCCN2C(=O)/C(=C/c3cccs3)SC2=S)cc1 | inconclusive: 35.5 µM [inhibitor, single point] | –
COc1ccc(Cl)cc1NC(=O)Cn1c(=O)n2nc(-c3ccccc3)nc2c2ccccc21 | inconclusive: 5.62 µM [activator, single point] | –
O=C(Cc1ccccc1)NN1C(=O)C2C3C=CC(C4CC34)C2C1=O (configuration not stated) | – | inactive: 17.7%
CN(CC(=O)Nc1cc(Cl)cc(Cl)c1)Cc1cccs1 | – | inactive: -15.4%
COc1ccc(OC)c(CN2CCC(CO)(CCOc3ccccc3)CC2)c1 | inconclusive: 22.4 µM [inhibitor, single point] | –
COc1cccc(NC(=O)Cn2c(=O)n(CCC(=O)NCc3ccccc3OC)c(=O)c3ccccc32)c1 | – | inactive: 13.2% [at 46.1 µM]
O=C(NC1CCCC1)C(c1ccc(Cl)cc1)N(Cc1ccc(F)cc1)C(=O)CCl (configuration not stated) | inconclusive: 0.1 µM [inhibitor, full curve, poor fit] | –
COc1cc(C2C=C(C(=O)O)Nc3ncnn32)ccc1O (configuration not stated) | – | inactive: -1.7% [at 46.1 µM]
Cc1cc(C)c(S(=O)(=O)c2ccccc2)c(OC(=O)c2ccc(Cl)cc2Cl)n1 | – | inactive: -21.7% [at 46.1 µM]
CCNC(=O)C(=O)Nc1ccc([N+](=O)[O-])cc1 | – | inactive: -0.318%

# Later entries.

SMILES,Potency,"activity change, negative = inhibition"
CCOC(=O)Nc1ccc2c(c1)N(C(=O)CCN1CCN(C)CC1)c1ccccc1S2,"inconclusive: 14.1 µM [inhibitor, single point]",–
Cc1ccc(S(=O)(=O)NCCCC(=O)N2CCC(C)CC2)cc1,"inconclusive: 6.31 µM [inhibitor, partial curve, poor fit]",–
COc1ccccc1C(=O)N/N=C(\C)CC(=O)Nc1ccc2c(c1)OCCO2,–,inactive: -1.47% [at 46.1 µM]
CCc1cccc2c3c([nH]c12)[C@](CC)(CC(=O)O)OCC3,inactive,–
Cc1ccc(C)c(N2CCN(C(c3ccncc3)c3nnnn3Cc3ccccc3)CC2)c1 (configuration not stated),"inconclusive: 29.1 µM [inhibitor, single point]",–
O=C(CSc1ncn[nH]1)c1ccccc1,–,inactive: 5.28%
CC(=O)COc1ccc2c3c(c(=O)oc2c1C)CCCCC3,"inconclusive: 7.3 µM [activator, single point]",–
Cc1ccc(/C=C/C(=O)NCCCn2ccnc2)cc1,–,inactive: 8.68% [at 46.1 µM]
Cc1oc(-c2cccs2)nc1CSCC(=O)N1CCC2(CC1)OCCO2,"inconclusive: 35.5 µM [inhibitor, single point]",–
O=C(C[n+]1ccccn1)c1ccccc1,–,inactive: 7.57%
CN(C(=O)Nc1ccc(Cl)cc1Cl)[C@H]1c2cc(Br)ccc2OC[C@H]1CO,"inconclusive: 23.1 µM [inhibitor, partial curve, poor fit]",–
CCOP(=O)(OCC)C(NC(=O)Nc1ccc(Cl)c(Cl)c1)c1ccccc1 (configuration not stated),"inconclusive: 12.6 µM [inhibitor, single point]",–
O=C(NCCc1ccccc1)C1CCN(C2CCN(C(=O)CC3=CCCCC3)CC2)CC1,"inconclusive: 17.8 µM [inhibitor, single point]",–
COc1cccc(-c2cc3c(-n4cccc4)ncnc3o2)c1,"inconclusive: 0.316 µM [inhibitor, partial curve, poor fit]",–
CC[n+]1c(C)n(C)c2cc(S(=O)(=O)N(C)C)ccc21,–,inactive: 20.2% [at 14.2 µM]
CC(C)(C)c1cc(Cl)c(O)c(NC(=S)NC(=O)c2cccnc2)c1,"inconclusive: 23.1 µM [inhibitor, single point]",–
COC(=O)c1c(NC(=O)CCl)sc(C(=O)N2CCOCC2)c1C,"inconclusive: 14.1 µM [inhibitor, partial curve, poor fit]",–
O=C(CSc1nnc(-c2cccs2)n1Cc1ccccc1)NCc1ccc2c(c1)OCO2,–,inactive: 6.76%
OC(Cn1cccn1)c1ccccc1 (configuration not stated),"inconclusive: 8.91 µM [activator, partial curve]",–
O=C(COc1ccccc1[N+](=O)[O-])Nc1ccc(NC(=O)c2cc3ccccc3o2)cc1,"inconclusive: 20.6 µM [inhibitor, single point]",–
CC(C)NC(=O)COC(=O)/C=C/c1ccco1,"inconclusive: 0.158 µM [activator, full curve, poor fit]",–
COc1cccc(NC(=O)C(NCC2CCCCC2)c2ccccc2)c1 (configuration not stated),"inconclusive: 35.5 µM [inhibitor, single point]",–
CCCN(Cc1nnc(-c2cccs2)o1)C(=O)CN1C(=O)NC2(CCCCC2)C1=O,"inconclusive: 8.91 µM [activator, partial curve, poor fit]",–
